Test results: patent US4921960A, “Quinoline thioethers” (priority 1987, dated 1990)

Test system: picrotoxin induced convulsions in rats
Format: in vivo, rat
Conditions: pretreated rats; picrotoxin 10 mg/kg s.c.

CN1C(=O)CN=C(c2ccccc2)c2cc(Cl)ccc21 [diazepam]
Influence on picrotoxin induced lethal convulsions: remained unchanged
